PubChem BioAssay AID1508587 | Peter MacCallum Cancer Centre | 2020
Shown is an unselected part of about 1,600 deposited reagents. 623 of them (39%) were called active. 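Calls are for each duplex; lactate ratios contain extreme outliers.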 Reagents against one gene are numbered here.

Assay: 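Retest of knockdowns boosting BRAF inhibitor action on lactate release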 (follow-up of hits)
Cell system: human WM266.4 melanoma cells with a BRAF V600 mutation
Reagents: single siRNA against human genes, 25 nM
Timing: 96 h
Treatment: vemurafenib 300 nM (about IC25), given 48 h after transfection for 48 h
Detection: 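Medium lactate read by absorbance over DAPI-counted nuclei; ratio with versus without vemurafenib, set against non-targeting siRNA, averaged over 2 replicates; cell number also recorded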
Reading the numbers: lactate per cell, drug vs no drug: higher = less drug-induced drop in lactate per cell; lactate per cell with vemurafenib: higher = more lactate per cell under drug; lactate per cell without drug: higher = more lactate per cell without drug; cell growth with vemurafenib and cell growth without drug: higher = more cell growth over 48 h
Hit rule: 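a duplex is active when its lactate-per-cell ratio with versus without drug falls under 0.55, i.e. 2 SD below non-targeting; a gene is confirmed if 2 or more of 4 duplexes pass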

The opening 2 entries as a preview:
| Target gene | siRNA no. | lactate per cell, drug vs no drug | lactate per cell with vemurafenib | lactate per cell without drug | cell growth with vemurafenib | cell growth without drug | Call |
| --- | --- | --- | --- | --- | --- | --- | --- |
| MRPL57 (GeneID 78988) | 1 | 0.74 | 1.86 | 1.77 | 0.55 | 0.4 | inactive |
| MRPL57 (GeneID 78988) | 2 | 0.29 | 0.26 | 0.62 | 0.19 | 0.2 | active |

Main list, from the start:
| Target gene | siRNA no. | lactate per cell, drug vs no drug | lactate per cell with vemurafenib | lactate per cell without drug | cell growth with vemurafenib | cell growth without drug | Call |
| --- | --- | --- | --- | --- | --- | --- | --- |
| MRPL57 (GeneID 78988) | 1 | 0.74 | 1.86 | 1.77 | 0.55 | 0.4 | inactive |
| MRPL57 (GeneID 78988) | 2 | 0.29 | 0.26 | 0.62 | 0.19 | 0.2 | active |
| MRPL57 (GeneID 78988) | 3 | 1.39 | 10.9 | 5.41 | -0.2 | -0.14 | inactive |
| MRPL57 (GeneID 78988) | 4 | 0.45 | 0.32 | 0.53 | 0.32 | 0.54 | active |
| GOLGA2 (GeneID 2801) | 1 | 0.77 | 2.66 | 2.27 | 0.21 | 0.16 | inactive |
| GOLGA2 (GeneID 2801) | 2 | 0.37 | 0.3 | 0.66 | -0.07 | 0.11 | active |
| GOLGA2 (GeneID 2801) | 3 | 0.72 | 2.93 | 2.67 | -0.06 | -0.02 | inactive |
| GOLGA2 (GeneID 2801) | 4 | 0.62 | 1.27 | 1.35 | 0.61 | 0.54 | inactive |
| IFT46 (GeneID 56912) | 1 | 0.68 | 1.05 | 0.98 | 0.97 | 1.04 | inactive |
| IFT46 (GeneID 56912) | 2 | 1.08 | 7.09 | 4.18 | -0.13 | -0.05 | inactive |
| IFT46 (GeneID 56912) | 3 | 0.24 | 0.44 | 0.96 | 0.08 | 0.15 | active |
| IFT46 (GeneID 56912) | 4 | 0.48 | 1.06 | 1.39 | 0.63 | 0.34 | active |
| THUMPD3 (GeneID 25917) | 1 | 0.57 | 0.82 | 0.98 | 0.86 | 1.07 | inactive |
| THUMPD3 (GeneID 25917) | 2 | 0.56 | 0.68 | 0.82 | 0.59 | 0.9 | inactive |
| THUMPD3 (GeneID 25917) | 3 | 0.45 | 0.45 | 0.68 | 0.05 | 0.54 | active |
| THUMPD3 (GeneID 25917) | 4 | 0.35 | 0.46 | 0.92 | 0.29 | 0.32 | active |
| SKIC3 (GeneID 9652) | 1 | 0.72 | 0.81 | 0.73 | 0.71 | 0.97 | inactive |
| SKIC3 (GeneID 9652) | 2 | 0.71 | 0.98 | 0.9 | 0.23 | 0.44 | inactive |
| SKIC3 (GeneID 9652) | 3 | 0.35 | 0.14 | 0.27 | 0.28 | 0.73 | active |
| SKIC3 (GeneID 9652) | 4 | 0.75 | 1.07 | 0.94 | 0.93 | 1.19 | inactive |
| MIER3 (GeneID 166968) | 1 | 0.8 | 2.01 | 1.59 | 0.41 | 0.44 | inactive |
| MIER3 (GeneID 166968) | 2 | 0.52 | 1.16 | 1.38 | 0.61 | 0.42 | active |
| MIER3 (GeneID 166968) | 3 | 0.2 | 0.36 | 1.27 | 0.08 | 0.42 | active |
| MIER3 (GeneID 166968) | 4 | 0.62 | 1.64 | 1.64 | 0.49 | 0.44 | inactive |
| NRP1 (GeneID 8829) | 1 | 0.6 | 2.33 | 2.63 | 0.17 | 0.12 | inactive |
| NRP1 (GeneID 8829) | 2 | 0.52 | 1.47 | 1.82 | 0.41 | 0.22 | active |
| NRP1 (GeneID 8829) | 3 | 0.44 | 0.6 | 0.92 | 0.74 | 0.86 | active |
| NRP1 (GeneID 8829) | 4 | 0.68 | 1.87 | 1.77 | 0.13 | 0.16 | inactive |
| RBM7 (GeneID 10179) | 1 | 0.29 | 0.47 | 1.1 | 0.2 | 0.29 | active |
| RBM7 (GeneID 10179) | 2 | 0.96 | 2.1 | 1.5 | 0.21 | 0.28 | inactive |
| RBM7 (GeneID 10179) | 3 | 1.07 | 2.84 | 1.82 | -0.18 | 0.06 | inactive |
| RBM7 (GeneID 10179) | 4 | 0.88 | 2.56 | 2.02 | 0.04 | 0.12 | inactive |
| FOLH1B (GeneID 219595) | 1 | 0.54 | 1.48 | 1.74 | 0.38 | 0.34 | active |
| FOLH1B (GeneID 219595) | 2 | 0.64 | 2 | 2 | 0.09 | 0.15 | inactive |
| FOLH1B (GeneID 219595) | 3 | 0.62 | 0.74 | 0.74 | 0.28 | 0.37 | inactive |
| FOLH1B (GeneID 219595) | 4 | 0.68 | 1.04 | 0.99 | 0.85 | 1.02 | inactive |
| CD302 (GeneID 9936) | 1 | 0.51 | 1.03 | 1.19 | 0.55 | 0.56 | active |
| CD302 (GeneID 9936) | 2 | 0.4 | 1.05 | 1.54 | 0.75 | 0.42 | active |
| CD302 (GeneID 9936) | 3 | 0.52 | 3.08 | 3.48 | 0.05 | -0.02 | active |
| CD302 (GeneID 9936) | 4 | 0.52 | 0.42 | 0.48 | 0.2 | 0.52 | active |
| DPP7 (GeneID 29952) | 1 | 1.1 | 2.16 | 1.16 | -0.11 | 0.22 | inactive |
| DPP7 (GeneID 29952) | 2 | 0.51 | 0.94 | 1.1 | 0.73 | 0.71 | active |
| DPP7 (GeneID 29952) | 3 | 0.64 | 2.47 | 2.26 | 0.2 | 0.21 | inactive |
| DPP7 (GeneID 29952) | 4 | 0.63 | 2.68 | 2.5 | 0.39 | 0.23 | inactive |
| YTHDC2 (GeneID 64848) | 1 | 0.66 | 0.9 | 0.9 | 0.32 | 0.57 | inactive |
| YTHDC2 (GeneID 64848) | 2 | 1.04 | 2.56 | 1.64 | 0.1 | 0.32 | inactive |
| YTHDC2 (GeneID 64848) | 3 | 0.24 | 0.16 | 0.43 | -0.01 | 0.09 | active |
| YTHDC2 (GeneID 64848) | 4 | 0.72 | 2.98 | 2.79 | 0.4 | 0.25 | inactive |
| ZKSCAN4 (GeneID 387032) | 1 | 0.62 | 1.77 | 1.96 | 0.38 | 0.22 | inactive |
| ZKSCAN4 (GeneID 387032) | 2 | 0.68 | 1.07 | 1.08 | 0.73 | 0.85 | inactive |
| ZKSCAN4 (GeneID 387032) | 3 | 0.55 | 0.7 | 0.86 | 0.14 | 0.48 | inactive |
| ZKSCAN4 (GeneID 387032) | 4 | 0.52 | 0.56 | 0.74 | 0.91 | 1.23 | active |
| CARD14 (GeneID 79092) | 1 | 0.61 | 6 | 6.78 | -0.12 | -0.14 | inactive |
| CARD14 (GeneID 79092) | 2 | 0.58 | 0.92 | 1.09 | 0.35 | 0.44 | inactive |
| CARD14 (GeneID 79092) | 3 | 0.44 | 0.7 | 1.06 | 0.71 | 0.61 | active |
| CARD14 (GeneID 79092) | 4 | 0.98 | 3.66 | 2.57 | 0.13 | 0.1 | inactive |
| TBCB (GeneID 1155) | 1 | 0.7 | 1.17 | 1.14 | 0.96 | 0.8 | inactive |
| TBCB (GeneID 1155) | 2 | 0.54 | 0.94 | 1.19 | 0.69 | 0.52 | active |
| TBCB (GeneID 1155) | 3 | 0.54 | 1.12 | 1.44 | 0.03 | 0.15 | active |
| TBCB (GeneID 1155) | 4 | 0.88 | 1.5 | 1.18 | 0.62 | 0.88 | inactive |
| EDN3 (GeneID 1908) | 1 | 0.38 | 0.66 | 1.1 | 0.58 | 0.36 | active |
| EDN3 (GeneID 1908) | 2 | 1.02 | 1.61 | 1.02 | -0.06 | 0.06 | inactive |
| EDN3 (GeneID 1908) | 3 | 0.48 | 1.64 | 2.31 | 0.26 | 0.14 | active |
| EDN3 (GeneID 1908) | 4 | 0.69 | 0.97 | 0.92 | 0.94 | 1.15 | inactive |
